Here are results for 28 substances from PMC8039524.

Sequences of proteins named here, by UniProt entry; tags and fusion partners are left off. Residues count along the entry.
UniProt Q3V6T2: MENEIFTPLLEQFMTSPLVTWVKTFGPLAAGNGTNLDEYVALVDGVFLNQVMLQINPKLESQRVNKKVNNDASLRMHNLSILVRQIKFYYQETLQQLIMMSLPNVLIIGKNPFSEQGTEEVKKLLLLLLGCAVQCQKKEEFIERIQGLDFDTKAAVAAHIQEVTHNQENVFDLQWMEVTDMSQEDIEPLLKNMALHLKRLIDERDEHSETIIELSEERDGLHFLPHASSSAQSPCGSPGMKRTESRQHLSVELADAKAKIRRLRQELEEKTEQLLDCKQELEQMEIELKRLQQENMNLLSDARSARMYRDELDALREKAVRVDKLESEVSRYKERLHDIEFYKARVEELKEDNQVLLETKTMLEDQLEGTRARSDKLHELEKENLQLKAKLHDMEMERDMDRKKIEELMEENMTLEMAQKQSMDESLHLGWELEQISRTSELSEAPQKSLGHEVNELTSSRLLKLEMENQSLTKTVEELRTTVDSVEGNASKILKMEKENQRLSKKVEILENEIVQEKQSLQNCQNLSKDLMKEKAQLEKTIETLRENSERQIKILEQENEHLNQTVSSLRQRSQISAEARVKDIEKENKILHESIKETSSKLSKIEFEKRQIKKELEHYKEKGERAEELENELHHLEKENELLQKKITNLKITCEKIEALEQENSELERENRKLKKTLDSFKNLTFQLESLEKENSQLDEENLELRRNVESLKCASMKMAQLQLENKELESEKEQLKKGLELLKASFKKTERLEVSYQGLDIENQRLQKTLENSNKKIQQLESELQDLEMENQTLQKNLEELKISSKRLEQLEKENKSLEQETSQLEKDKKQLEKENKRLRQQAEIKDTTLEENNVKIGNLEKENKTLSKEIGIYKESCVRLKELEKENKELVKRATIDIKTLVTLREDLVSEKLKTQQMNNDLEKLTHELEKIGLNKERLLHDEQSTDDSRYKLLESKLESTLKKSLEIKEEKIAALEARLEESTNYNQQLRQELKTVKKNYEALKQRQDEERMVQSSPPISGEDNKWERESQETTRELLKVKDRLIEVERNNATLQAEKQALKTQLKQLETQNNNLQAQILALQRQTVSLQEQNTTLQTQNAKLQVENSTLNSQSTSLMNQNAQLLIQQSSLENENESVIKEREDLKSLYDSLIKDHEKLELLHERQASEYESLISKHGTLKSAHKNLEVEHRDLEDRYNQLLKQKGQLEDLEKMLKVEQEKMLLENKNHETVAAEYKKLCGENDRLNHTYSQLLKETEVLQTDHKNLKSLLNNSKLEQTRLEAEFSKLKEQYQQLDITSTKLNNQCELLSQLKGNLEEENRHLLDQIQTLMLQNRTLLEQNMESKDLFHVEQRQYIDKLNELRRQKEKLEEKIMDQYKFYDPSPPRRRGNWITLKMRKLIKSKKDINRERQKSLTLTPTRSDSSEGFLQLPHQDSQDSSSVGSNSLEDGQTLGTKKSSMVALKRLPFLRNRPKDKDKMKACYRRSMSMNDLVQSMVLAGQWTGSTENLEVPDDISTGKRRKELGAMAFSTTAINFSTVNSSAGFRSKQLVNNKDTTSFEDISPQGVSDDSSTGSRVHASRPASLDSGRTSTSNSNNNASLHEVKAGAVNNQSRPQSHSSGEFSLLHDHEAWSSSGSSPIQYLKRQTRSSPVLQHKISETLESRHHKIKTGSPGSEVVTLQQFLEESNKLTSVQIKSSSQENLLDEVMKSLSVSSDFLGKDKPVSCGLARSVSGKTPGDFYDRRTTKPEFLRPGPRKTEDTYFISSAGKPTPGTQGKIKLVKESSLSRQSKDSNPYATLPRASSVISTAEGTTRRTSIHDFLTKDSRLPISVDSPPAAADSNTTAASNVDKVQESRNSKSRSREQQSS
UniProt P07355: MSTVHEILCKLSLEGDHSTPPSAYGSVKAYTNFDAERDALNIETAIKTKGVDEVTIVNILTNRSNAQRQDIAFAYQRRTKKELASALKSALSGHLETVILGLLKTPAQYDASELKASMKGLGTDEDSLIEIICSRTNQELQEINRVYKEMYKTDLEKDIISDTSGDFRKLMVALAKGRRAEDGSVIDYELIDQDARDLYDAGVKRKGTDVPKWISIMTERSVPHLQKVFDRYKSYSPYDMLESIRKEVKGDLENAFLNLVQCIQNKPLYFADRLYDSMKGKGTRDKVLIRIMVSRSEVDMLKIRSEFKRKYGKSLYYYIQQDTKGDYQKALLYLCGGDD
UniProt P62258: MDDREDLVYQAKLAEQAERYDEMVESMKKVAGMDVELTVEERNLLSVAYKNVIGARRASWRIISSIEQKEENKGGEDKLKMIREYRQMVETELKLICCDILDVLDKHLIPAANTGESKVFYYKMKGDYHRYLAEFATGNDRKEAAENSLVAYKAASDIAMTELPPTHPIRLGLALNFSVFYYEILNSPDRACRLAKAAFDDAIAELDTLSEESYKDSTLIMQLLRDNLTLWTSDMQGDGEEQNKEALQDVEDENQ
UniProt P06733: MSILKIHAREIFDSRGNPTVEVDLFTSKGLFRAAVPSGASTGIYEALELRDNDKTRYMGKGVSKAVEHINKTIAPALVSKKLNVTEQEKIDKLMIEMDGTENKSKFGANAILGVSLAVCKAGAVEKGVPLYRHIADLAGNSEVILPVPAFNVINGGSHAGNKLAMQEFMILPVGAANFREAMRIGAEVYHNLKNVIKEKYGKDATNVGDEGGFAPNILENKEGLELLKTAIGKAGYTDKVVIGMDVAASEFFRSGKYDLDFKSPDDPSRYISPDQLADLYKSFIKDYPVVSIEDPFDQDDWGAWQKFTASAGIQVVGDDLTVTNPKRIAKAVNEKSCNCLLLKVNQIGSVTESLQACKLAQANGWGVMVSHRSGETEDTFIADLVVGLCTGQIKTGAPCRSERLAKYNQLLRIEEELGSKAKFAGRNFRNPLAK
UniProt P08670: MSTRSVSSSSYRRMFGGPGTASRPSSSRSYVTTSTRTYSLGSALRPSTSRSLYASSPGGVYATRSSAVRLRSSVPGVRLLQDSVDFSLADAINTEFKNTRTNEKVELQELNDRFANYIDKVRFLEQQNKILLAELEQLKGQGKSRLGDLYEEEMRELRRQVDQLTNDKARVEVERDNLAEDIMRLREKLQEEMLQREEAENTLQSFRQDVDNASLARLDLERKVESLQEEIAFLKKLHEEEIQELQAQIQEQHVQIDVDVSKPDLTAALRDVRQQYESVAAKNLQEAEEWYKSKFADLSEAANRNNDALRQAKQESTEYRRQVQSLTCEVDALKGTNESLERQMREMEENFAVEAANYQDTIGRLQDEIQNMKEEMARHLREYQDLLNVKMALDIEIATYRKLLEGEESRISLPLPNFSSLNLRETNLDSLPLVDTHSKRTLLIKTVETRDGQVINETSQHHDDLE
UniProt P10809, residues 27-573: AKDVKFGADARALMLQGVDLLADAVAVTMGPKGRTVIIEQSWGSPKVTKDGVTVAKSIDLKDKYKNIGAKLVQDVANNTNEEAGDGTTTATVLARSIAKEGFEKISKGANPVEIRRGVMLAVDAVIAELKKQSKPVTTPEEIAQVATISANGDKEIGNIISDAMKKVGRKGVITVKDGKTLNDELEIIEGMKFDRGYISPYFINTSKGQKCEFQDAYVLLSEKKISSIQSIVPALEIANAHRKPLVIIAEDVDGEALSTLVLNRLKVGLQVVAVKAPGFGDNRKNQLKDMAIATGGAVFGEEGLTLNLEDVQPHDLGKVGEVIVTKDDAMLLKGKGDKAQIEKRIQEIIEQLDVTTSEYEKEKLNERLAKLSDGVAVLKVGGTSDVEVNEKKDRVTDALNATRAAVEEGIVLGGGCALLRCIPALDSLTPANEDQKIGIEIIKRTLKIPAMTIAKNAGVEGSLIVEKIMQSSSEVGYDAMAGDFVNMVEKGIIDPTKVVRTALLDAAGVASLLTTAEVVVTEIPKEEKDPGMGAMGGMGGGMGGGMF
UniProt P08238: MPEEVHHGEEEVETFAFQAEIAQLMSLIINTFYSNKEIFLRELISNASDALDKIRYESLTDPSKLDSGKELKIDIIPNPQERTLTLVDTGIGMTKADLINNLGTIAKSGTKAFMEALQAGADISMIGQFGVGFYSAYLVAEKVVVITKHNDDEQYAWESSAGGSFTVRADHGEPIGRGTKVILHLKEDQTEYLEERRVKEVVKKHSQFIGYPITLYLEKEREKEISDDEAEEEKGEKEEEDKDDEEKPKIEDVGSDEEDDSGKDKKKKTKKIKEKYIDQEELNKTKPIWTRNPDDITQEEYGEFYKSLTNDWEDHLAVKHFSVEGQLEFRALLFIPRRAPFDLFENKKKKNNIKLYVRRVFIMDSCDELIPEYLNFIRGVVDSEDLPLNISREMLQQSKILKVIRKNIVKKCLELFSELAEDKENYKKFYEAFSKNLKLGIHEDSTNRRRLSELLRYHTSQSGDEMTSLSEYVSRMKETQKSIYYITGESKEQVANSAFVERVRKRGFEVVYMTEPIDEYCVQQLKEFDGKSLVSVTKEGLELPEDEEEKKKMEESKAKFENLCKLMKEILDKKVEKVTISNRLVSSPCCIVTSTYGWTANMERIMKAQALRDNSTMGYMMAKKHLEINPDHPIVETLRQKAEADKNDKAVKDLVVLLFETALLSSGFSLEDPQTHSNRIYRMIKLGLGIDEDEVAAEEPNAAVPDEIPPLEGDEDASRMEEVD
UniProt P38646, residues 47-679: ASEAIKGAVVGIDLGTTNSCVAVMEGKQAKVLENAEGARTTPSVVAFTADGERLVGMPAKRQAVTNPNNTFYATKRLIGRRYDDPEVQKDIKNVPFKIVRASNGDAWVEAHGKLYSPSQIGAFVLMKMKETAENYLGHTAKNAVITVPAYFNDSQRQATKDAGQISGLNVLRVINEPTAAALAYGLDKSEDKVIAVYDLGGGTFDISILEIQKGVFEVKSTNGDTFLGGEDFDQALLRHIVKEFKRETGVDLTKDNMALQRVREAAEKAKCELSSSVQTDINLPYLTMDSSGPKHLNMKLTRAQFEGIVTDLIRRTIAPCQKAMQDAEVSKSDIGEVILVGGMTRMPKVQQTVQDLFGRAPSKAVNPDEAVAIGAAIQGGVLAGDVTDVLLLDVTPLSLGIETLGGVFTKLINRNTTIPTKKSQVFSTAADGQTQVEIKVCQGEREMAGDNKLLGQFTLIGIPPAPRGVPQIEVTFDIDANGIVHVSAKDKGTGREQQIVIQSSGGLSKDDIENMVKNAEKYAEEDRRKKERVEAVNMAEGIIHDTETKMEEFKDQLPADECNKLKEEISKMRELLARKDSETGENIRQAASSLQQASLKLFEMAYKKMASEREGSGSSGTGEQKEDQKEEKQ
UniProt P07237, residues 18-508: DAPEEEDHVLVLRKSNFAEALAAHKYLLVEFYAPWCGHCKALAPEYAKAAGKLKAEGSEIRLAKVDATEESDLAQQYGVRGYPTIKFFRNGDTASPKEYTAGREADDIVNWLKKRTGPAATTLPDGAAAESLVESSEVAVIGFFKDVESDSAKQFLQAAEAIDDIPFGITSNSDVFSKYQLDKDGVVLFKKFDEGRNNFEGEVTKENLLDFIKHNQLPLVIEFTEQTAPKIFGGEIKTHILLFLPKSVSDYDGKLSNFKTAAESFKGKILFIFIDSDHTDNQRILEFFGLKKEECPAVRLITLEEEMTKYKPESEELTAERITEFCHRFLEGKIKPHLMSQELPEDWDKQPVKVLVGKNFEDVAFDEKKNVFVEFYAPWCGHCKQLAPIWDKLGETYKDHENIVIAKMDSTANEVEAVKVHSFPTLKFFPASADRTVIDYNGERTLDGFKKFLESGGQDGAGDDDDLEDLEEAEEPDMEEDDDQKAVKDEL
UniProt P27824, residues 21-592: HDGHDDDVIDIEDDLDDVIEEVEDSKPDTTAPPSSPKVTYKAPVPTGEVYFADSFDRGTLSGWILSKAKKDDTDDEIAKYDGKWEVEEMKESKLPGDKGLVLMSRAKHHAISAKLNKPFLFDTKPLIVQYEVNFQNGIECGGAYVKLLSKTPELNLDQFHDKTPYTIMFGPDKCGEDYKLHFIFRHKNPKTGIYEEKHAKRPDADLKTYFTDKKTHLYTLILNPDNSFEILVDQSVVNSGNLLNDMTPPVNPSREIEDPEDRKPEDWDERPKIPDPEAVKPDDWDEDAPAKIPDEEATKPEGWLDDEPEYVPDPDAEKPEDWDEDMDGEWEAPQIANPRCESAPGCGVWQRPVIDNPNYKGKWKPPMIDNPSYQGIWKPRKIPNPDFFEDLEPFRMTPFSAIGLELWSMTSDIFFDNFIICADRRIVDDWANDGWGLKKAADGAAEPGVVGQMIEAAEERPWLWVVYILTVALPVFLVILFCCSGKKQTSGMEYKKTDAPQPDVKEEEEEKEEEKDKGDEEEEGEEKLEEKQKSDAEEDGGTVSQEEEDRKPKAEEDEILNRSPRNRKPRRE

No constants are given. Whether binding was seen depends on the method and setting. Binding seen in cells or lysates may run through a third protein. A yes stands for co-enrichment or nearness to the bait. Other partners may have been found.

This assay deals with Girdin (girders of actin filament) (human (endogenous in BxPC-3 and PANC-1)) (UniProt Q3V6T2). The assay is described as follows: affinity purification with mass spectrometry; lysates of BxPC-3 cells transfected with Scramble or Girdin lentivirus, immunoprecipitated with anti-Girdin antibody; LC-MS/MS on LTQ-Orbitrap, MaxQuant.
As to Annexin A2 (from UniProt P07355 1-339), the binding result was “binds”. As to “Clathrin heavy chain (from UniProt Q00610 1-1675)”, the binding result is on record as “binds”. The same measure for “T-complex protein 1 subunit theta (from UniProt P50990 1-548)”: “binds”; for “Isoform 3 of A-kinase anchor protein 12 (from UniProt Q02952-3 1-1677)”: “binds”; for “14-3-3 protein epsilon (from UniProt P62258 1-255)”: “binds”. With Myosin-9 (from UniProt P35579 1-1960), the binding entry is “binds”. Take “Alpha-enolase (from UniProt P06733 1-434)”: the binding entry is “binds”. As for Filamin-A (from UniProt P21333 1-2647), the binding entry is listed as “binds”. As for Drebrin (from UniProt Q16643 1-649), the binding entry was “binds”. Vimentin (from UniProt P08670 1-466): the binding entry was “binds”. Regarding “Heat shock protein HSP 90-alpha (from UniProt P07900 1-732)”, the binding result was “binds”. For “60 kDa heat shock protein, mitochondrial (from UniProt P10809 27-573)”, the binding result is “binds”. In the case of “Heat shock protein HSP 90-beta (from UniProt P08238 1-724)”, the binding entry is “binds”. Turning to “Stress-70 protein, mitochondrial (from UniProt P38646 47-679)”, the binding entry is reported as “binds”.

On to “Isoform 2 of F-actin-capping protein subunit beta (from UniProt P47756-2 1-272)”, for which the binding entry is “binds”.

As for “prolyl 4-hydroxylase subunit beta (from UniProt P07237 18-508)”, the binding entry is reported as “binds”. The same measure for “Glucose-6-phosphate isomerase (Fragment) (from UniProt P06744 1-558)”: “binds”.

“P62/SQSTM1 (Sequestosome-1) (from UniProt Q13501 1-440)”: the binding result is reported as “binds”.

Turning to Calnexin (from UniProt P27824 21-592), the binding result was “binds”. Turning to “Isoform 4 of LIM domain and actin-binding protein 1 (from UniProt Q9UHB6-4 1-760)”, the binding entry is on record as “binds”. The same measure for “Pyruvate kinase PKM (from UniProt P14618 1-531)”: “binds”; for Ezrin (from UniProt P15311 1-586): “binds”. In the case of “Isoform 3 of Heterogeneous nuclear ribonucleoprotein K (from UniProt P61978-3 1-440)”, the binding entry is reported as “binds”. As to “Alpha-actinin-4 (from UniProt O43707 1-911)”, the binding entry was “binds”. On to “Isoform 8 of Filamin-B (from UniProt O75369-8 1-2633)”, for which the binding entry is reported as “binds”. On to “Spectrin beta chain, non-erythrocytic 1 (from UniProt Q01082 1-2364)”, for which the binding result is “binds”.

In the case of “Endoplasmin (from UniProt P14625 22-803)”, the binding entry is listed as “binds”. Turning to “C-1-tetrahydrofolate synthase, cytoplasmic (from UniProt P11586 1-935)”, the binding entry is given as “binds”.
